In patent US20110293599A1 one finds binding data, which are given here for four substances.

The chains behind the UniProt entries cited, without tags or fusion partners. Where a name states a change or a piece, a line headed by the entry shows the natural chain unless it says otherwise.
UniProt P10085: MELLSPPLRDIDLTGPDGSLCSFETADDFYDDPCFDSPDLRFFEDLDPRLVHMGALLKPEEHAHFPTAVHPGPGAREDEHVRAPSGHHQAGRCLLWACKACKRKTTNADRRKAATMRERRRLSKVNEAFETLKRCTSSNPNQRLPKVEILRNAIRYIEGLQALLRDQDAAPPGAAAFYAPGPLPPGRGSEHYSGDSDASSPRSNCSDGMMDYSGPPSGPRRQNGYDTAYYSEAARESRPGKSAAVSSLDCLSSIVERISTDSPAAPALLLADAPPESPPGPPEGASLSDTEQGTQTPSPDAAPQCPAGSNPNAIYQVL
UniProt Q9EPK5: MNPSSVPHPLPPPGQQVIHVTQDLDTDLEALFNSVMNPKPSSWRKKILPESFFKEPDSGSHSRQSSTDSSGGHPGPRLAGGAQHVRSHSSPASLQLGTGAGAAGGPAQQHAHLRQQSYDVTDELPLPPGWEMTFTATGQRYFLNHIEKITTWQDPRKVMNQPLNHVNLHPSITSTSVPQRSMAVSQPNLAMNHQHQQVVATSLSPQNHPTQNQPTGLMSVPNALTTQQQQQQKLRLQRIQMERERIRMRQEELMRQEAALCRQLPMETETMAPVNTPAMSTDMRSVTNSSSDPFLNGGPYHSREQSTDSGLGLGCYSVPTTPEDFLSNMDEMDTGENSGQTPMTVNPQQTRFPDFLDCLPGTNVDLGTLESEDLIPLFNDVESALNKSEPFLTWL

No constants are given. Whether binding was seen depends on the method and setting. In cells and extracts the contact can be indirect. Some results given as binding are weak or reduced against the parent protein; the word gives no strength.

In experiment [1] the target is Myc-tagged MyoD, full length 318 aa (FL) (UniProt P10085). Kind of experiment: co-immunoprecipitation from 293T cells, Flag-M2 beads, MyoD immunoblot. On the technique in general: Immunoblotting shows a protein as a band on a membrane.
The target of experiment [2] is Flag-tagged TAZ (transcriptional coactivator with PDZ-binding motif), full length (1-395 aa) (Mus musculus (Mouse)) (UniProt Q9EPK5). Kind of experiment: co-immunoprecipitation from 293T cells, Flag-M2 beads, immunoblot.
Experiment [3] concerns the target Myc-tagged MyoD, full length 318 aa (FL) (UniProt P10085). Kind of experiment: co-immunoprecipitation from 293T cells, Flag-M2 beads, MyoD immunoblot (legend of FIG. 4).
Experiment [4] deals with endogenous MyoD protein of C2C12 cells (mouse) (UniProt P10085). As to the kind of experiment: co-immunoprecipitation from differentiating C2C12 cells stably expressing Flag-TAZ, anti-MyoD immunoblot.
Experiment [5] has as its target Myc-tagged MyoD, full length 318 aa (FL) (UniProt P10085). Kind of experiment: co-immunoprecipitation from 293T cells, Flag-M2 beads, anti-Flag and anti-MyoD immunoblot.

Take “TAZ truncation ΔN1 (aa 124-395 TAZ) (from UniProt Q9EPK5 124-395)”: the binding result in experiment [1] is recorded as “binds”.

Take “CT MyoD (aa 162-318), Myc-tagged (from UniProt P10085 162-318)”: the binding entry in experiment [2] was “binds”.

On to “Flag-tagged TAZ (transcriptional coactivator with PDZ-binding motif), full length (1-395 aa) (from UniProt Q9EPK5 1-395)”, for which the binding entry in experiment [3], in experiment [1] and in experiment [4] was “binds” throughout.

Regarding “NT TAZ (aa 1-163) (from UniProt Q9EPK5 1-163)”, the binding entry in experiment [5] is “binds”.
